{"source": "patent US20230287473A1", "about": "“BACTERIAL SPORE GERMINATION ASSAY OF MICROBIOTA DISRUPTION” (University of Virginia Patent Foundation, priority 2020, published 2023)", "test_system": "C. difficile UK1 spores", "assay": "Spore germination with ex vivo microbiota samples from antibiotic-treated mouse model, CFU assay", "assay_type": "in vivo, Clostridioides difficile", "details": "mice given clindamycin 25 mg/kg/day for 10 days, oral gavage; stool 7 days later; 24 h of growth; p<0.01", "note": "At least one structure is not confirmed: it was looked up by name or label, or the drawing left a doubt.", "data": [{"smiles": "CCC[C@@H]1C[C@@H](C(=O)N[C@@H]([C@H]2O[C@H](SC)[C@H](O)[C@@H](O)[C@H]2O)[C@H](C)Cl)N(C)C1", "note": "[clindamycin]", "values": [{"measurement": "spore germination (numbers of vegetative C. difficile, CFU) versus untreated microbiota", "value": "significantly higher levels"}]}]}
